Data source: PubChem BioAssay AID504804 (Drosophila RNAi Screening Center, 2011)

Screen: 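dsRNAs that improve Kc cell survival under doxorubicin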 (primary screen)
System: Drosophila Kc cells
Reagents: long dsRNA against Drosophila genes, 0.5 µg dsRNA per well
Time to read-out: 96 h (48 h knock-down, then 48 h drug)
Conditions: doxorubicin 5 µg/ml for 48 h, added 48 h after dsRNA
Read-out: 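Viability measured as cellular ATP by luminescence after 48 h knock-down then 48 h doxorubicin at 5 µg/ml; unnormalised plate counts for each replicate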
Reading the numbers: raw ATP luminescence: higher = more viable cells, protection from doxorubicin
Rule for the call: 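Active when both duplicate wells lie at least 2 SD above the plate mean and protection is confirmed by rescreening and independent dsRNAs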
The screen tested about 19,000 reagents; this is a random part of those that have a named target and a result. Of all reagents, 47 (0.25%) are marked active. 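Signals are raw, not normalised; exact z-scores behind calls not deposited; actives needed confirmation, so some wells reaching 2 SD are inactive.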 Names joined by + are all predicted targets of the reagent. Reagent sequences are not shown.

predicted target | dsRNA | SD above plate mean | raw ATP luminescence, replicate 1 | raw ATP luminescence, replicate 2 | call
Sdc | DRSC04654 | – | 63480 | 63610 | inactive
Idgf1 | DRSC03349 | – | 91040 | 56203 | inactive
amos | DRSC03484 | – | 37877 | 27557 | inactive
Nckx30C | DRSC02686 | – | 37857 | 54367 | inactive
Nckx30C | DRSC02687 | – | 41847 | 75357 | inactive
Nckx30C | DRSC02688 | – | 45963 | 46473 | inactive
Nckx30C | DRSC02689 | – | 25503 | 49833 | inactive
CG42789 | DRSC13793 | – | 1.38e5 | 1.59e5 | inactive
Nup50 | DRSC06827 | – | 76623 | 57413 | inactive
Ir75b | DRSC10189 | – | 85743 | 61190 | inactive
ClpX | DRSC15592 | – | 28430 | 32267 | inactive
CG15169 | DRSC02470 | – | 58423 | 77523 | inactive
UQCR-14L | DRSC15288 | – | 68170 | 55220 | inactive
Alp1 | DRSC11781 | – | 20767 | 24670 | inactive
CG30411 | DRSC04004 | – | 87503 | 88440 | inactive
CG31462 (retired record) | DRSC14359 | – | 64550 | 68407 | inactive
Npc2h | DRSC14297 | – | 76460 | 48910 | inactive
CG6664 | DRSC10690 | – | 20440 | 16097 | inactive
CR12628 + Mgstl | DRSC03702 | – | 52210 | 56387 | inactive
CR12628 + Mgstl | DRSC20568 | – | 3.26e5 | 3.39e5 | inactive
CG8155 | DRSC07084 | – | 91357 | 64123 | inactive
CG5217 | DRSC15740 | – | 43040 | 54680 | inactive
CG9451 | DRSC11074 | – | 71453 | 70340 | inactive
CG17377 | DRSC00950 | – | 3.41e5 | 3.16e5 | inactive
CG17377 | DRSC02615 | – | 1.02e5 | 93833 | inactive
Or43a | DRSC07485 | – | 56317 | 98220 | inactive
Ttd14 | DRSC06632 | – | 58540 | 54420 | inactive
CaBP1 | DRSC01984 | – | 89600 | 65603 | inactive
Gpdh3 | DRSC13561 | – | 2.33e5 | 2.15e5 | inactive
Gpdh3 | DRSC15325 | – | 66980 | 61510 | inactive
ics | DRSC01878 | – | 1.02e5 | 68790 | inactive
CG6287 | DRSC02947 | – | 1.16e5 | 81297 | inactive
CG32104 | DRSC10127 | – | 54550 | 50217 | inactive
CG32104 | DRSC10128 | – | 55507 | 65600 | inactive
grsm | DRSC14165 | – | 1.18e5 | 92960 | inactive
grsm | DRSC14843 | – | 1.13e5 | 58050 | inactive
CG15376 (retired record) | DRSC18046 | – | 23510 | 31470 | inactive
CG6345 | DRSC16024 | – | 64813 | 55937 | inactive
Atg7 | DRSC05741 | – | 1.32e5 | 1.32e5 | inactive
CkIalpha | DRSC20231 | – | 3.69e5 | 3.90e5 | inactive
CG13627 | DRSC14629 | – | 47110 | 45930 | inactive
CG30195 | DRSC04155 | – | 58477 | 48597 | inactive
D12 | DRSC03311 | – | 1.17e5 | 83787 | inactive
Duba | DRSC10582 | – | 43447 | 36313 | inactive
aust | DRSC02558 | – | 39363 | 88253 | inactive
inaF-A | DRSC19660 | – | 3.89e5 | 3.11e5 | inactive
CG7953 | DRSC01902 | – | 84433 | 62563 | inactive
Irk2 | DRSC15569 | – | 33520 | 41873 | inactive
kug | DRSC10911 | – | 27073 | 23300 | inactive
CG11912 | DRSC00332 | – | 1.15e5 | 72653 | inactive
CG9445 | DRSC05006 | – | 39963 | 1.10e5 | inactive
CG9577 | DRSC20693 | – | 3.46e5 | 3.60e5 | inactive
CG34029 | DRSC03909 | – | 77010 | 74823 | inactive
Tbce | DRSC04897 | – | 71107 | 80140 | inactive
CG33110 | DRSC14694 | – | 18730 | 17890 | inactive
CG33110 | DRSC16137 | – | 78980 | 71400 | inactive
CG34005 | DRSC05700 | – | 53777 | 56613 | inactive
CG7810 | DRSC03072 | – | 91687 | 68763 | inactive
Patsas | DRSC02975 | – | 89547 | 77560 | inactive
CG1075 (retired record) | DRSC12144 | – | 59287 | 65433 | inactive
CG33937 (retired record) | DRSC15148 | – | 63390 | 59887 | inactive
CG9853 | DRSC12343 | – | 14873 | 26510 | inactive
CG6034 | DRSC10572 | – | 48827 | 47377 | inactive
tho2 | DRSC00646 | – | 97263 | 79010 | inactive
CG31388 | DRSC15254 | – | 46923 | 24837 | inactive
CG6865 | DRSC10732 | – | 42587 | 32603 | inactive
Drp1 | DRSC00574 | – | 80777 | 59480 | inactive
ms(3)K81 | DRSC14746 | – | 39710 | 41130 | inactive
CG34197 (retired record) | DRSC05791 | – | 1.20e5 | 74637 | inactive
CG33627 | DRSC05343 | – | 89727 | 1.01e5 | inactive
CG12691 | DRSC17880 | – | 40120 | 49630 | inactive
CG12567 | DRSC20845 | – | 3.60e5 | 2.71e5 | inactive
Mdr49 | DRSC07466 | – | 55333 | 54287 | inactive
Atg8b | DRSC14501 | – | 44730 | 41720 | inactive
CG34282 | DRSC16298 | – | 56880 | 60300 | inactive
side-IV + CG17025 (retired record) | DRSC15168 | – | 73180 | 80920 | inactive
CG10514 | DRSC14249 | – | 83340 | 94240 | inactive
CG31142 | DRSC13647 | – | 1.74e5 | 2.10e5 | inactive
CG3500 | DRSC04379 | – | 47610 | 53647 | inactive
Sms | DRSC10408 | – | 68193 | 70130 | inactive
Grl65a | DRSC08837 | – | 1.67e5 | 2.10e5 | inactive
Syb | DRSC07559 | – | 47230 | 45213 | inactive
CG14187 | DRSC10186 | – | 67863 | 57377 | inactive
CG4686 | DRSC15622 | – | 73540 | 54030 | inactive
CG16717 | DRSC10221 | – | 76320 | 1.42e5 | inactive
Blm | DRSC16911 | – | 43317 | 34407 | inactive
Ddrgk1 | DRSC15897 | – | 40577 | 33647 | inactive
Lapsyn | DRSC04249 | – | 74137 | 71093 | inactive
Dyro | DRSC10598 | – | 74847 | 56773 | inactive
ssp5 | DRSC14955 | – | 69683 | 37097 | inactive
aspr | DRSC20689 | – | 3.89e5 | 3.68e5 | inactive
aspr | DRSC20690 | – | 3.46e5 | 3.49e5 | inactive
Hipk | DRSC07885 | – | 77860 | 1.27e5 | inactive
Hipk | DRSC08507 | – | 56333 | 72043 | inactive
Sec23 | DRSC12387 | 2 to 3 SD above plate mean | 1.08e5 | 49900 | active
VGlut | DRSC00733 | – | 2.15e5 | 1.87e5 | inactive
CG6739 | DRSC02987 | – | 22747 | 23380 | inactive
CG5509 | DRSC15822 | – | 51650 | 77683 | inactive
AMPdeam | DRSC18996 | – | 2.45e5 | 2.90e5 | inactive
AMPdeam | DRSC19368 | – | 3.00e5 | 3.35e5 | inactive
AMPdeam | DRSC19727 | – | 2.38e5 | 2.26e5 | inactive
Cpr30F | DRSC02908 | – | 78613 | 62820 | inactive
CG12688 (retired record) | DRSC17877 | – | 43020 | 44800 | inactive
CG12688 (retired record) | DRSC17878 | – | 37170 | 49660 | inactive
und | DRSC03629 | – | 99563 | 63017 | inactive
nAChRbeta1 | DRSC08097 | – | 1.84e5 | 1.44e5 | inactive
nAChRbeta1 | DRSC08728 | – | 40310 | 48300 | inactive

Copied from above (12 entries):
predicted target | dsRNA | SD above plate mean | raw ATP luminescence, replicate 1 | raw ATP luminescence, replicate 2 | call
CG6664 | DRSC10690 | – | 20440 | 16097 | inactive
CR12628 + Mgstl | DRSC03702 | – | 52210 | 56387 | inactive
CR12628 + Mgstl | DRSC20568 | – | 3.26e5 | 3.39e5 | inactive
CG8155 | DRSC07084 | – | 91357 | 64123 | inactive
CG5217 | DRSC15740 | – | 43040 | 54680 | inactive
CG9451 | DRSC11074 | – | 71453 | 70340 | inactive
CG17377 | DRSC00950 | – | 3.41e5 | 3.16e5 | inactive
CG17377 | DRSC02615 | – | 1.02e5 | 93833 | inactive
Or43a | DRSC07485 | – | 56317 | 98220 | inactive
Ttd14 | DRSC06632 | – | 58540 | 54420 | inactive
CaBP1 | DRSC01984 | – | 89600 | 65603 | inactive
Gpdh3 | DRSC13561 | – | 2.33e5 | 2.15e5 | inactive
